The record followed here is the supplement of paper PMC10849652.

By UniProt entry, the sequences of proteins in these tests, tags left out. Where a name states a change or a piece, a line headed by the entry shows the natural chain unless it says otherwise.
UniProt Q9UMS0: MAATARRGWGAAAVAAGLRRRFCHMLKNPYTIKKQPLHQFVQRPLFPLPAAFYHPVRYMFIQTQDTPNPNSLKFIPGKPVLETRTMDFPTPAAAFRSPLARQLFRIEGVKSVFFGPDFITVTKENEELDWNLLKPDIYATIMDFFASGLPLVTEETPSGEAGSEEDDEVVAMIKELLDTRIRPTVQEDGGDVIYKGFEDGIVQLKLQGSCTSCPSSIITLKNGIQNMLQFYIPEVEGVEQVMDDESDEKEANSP
UniProt Q86X76: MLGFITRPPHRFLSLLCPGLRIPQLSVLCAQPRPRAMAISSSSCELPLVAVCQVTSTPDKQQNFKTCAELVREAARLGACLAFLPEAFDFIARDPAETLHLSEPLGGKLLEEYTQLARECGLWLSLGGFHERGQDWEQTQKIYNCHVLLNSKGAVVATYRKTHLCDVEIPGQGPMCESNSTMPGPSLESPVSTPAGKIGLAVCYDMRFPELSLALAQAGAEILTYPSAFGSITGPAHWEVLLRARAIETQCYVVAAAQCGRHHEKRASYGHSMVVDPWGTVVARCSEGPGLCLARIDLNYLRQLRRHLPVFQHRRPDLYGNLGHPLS
UniProt Q8TDX7: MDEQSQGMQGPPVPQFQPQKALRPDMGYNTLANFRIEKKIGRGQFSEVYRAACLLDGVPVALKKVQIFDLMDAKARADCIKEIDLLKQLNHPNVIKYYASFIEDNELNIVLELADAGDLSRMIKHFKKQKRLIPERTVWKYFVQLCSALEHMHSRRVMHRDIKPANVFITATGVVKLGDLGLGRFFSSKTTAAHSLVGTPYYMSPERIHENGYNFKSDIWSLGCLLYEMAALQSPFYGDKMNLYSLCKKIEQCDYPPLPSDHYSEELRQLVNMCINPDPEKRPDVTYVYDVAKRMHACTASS
UniProt O43676, whole entry, looked up: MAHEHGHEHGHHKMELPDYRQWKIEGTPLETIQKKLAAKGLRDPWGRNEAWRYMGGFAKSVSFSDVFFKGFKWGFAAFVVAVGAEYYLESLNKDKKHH
UniProt P48681: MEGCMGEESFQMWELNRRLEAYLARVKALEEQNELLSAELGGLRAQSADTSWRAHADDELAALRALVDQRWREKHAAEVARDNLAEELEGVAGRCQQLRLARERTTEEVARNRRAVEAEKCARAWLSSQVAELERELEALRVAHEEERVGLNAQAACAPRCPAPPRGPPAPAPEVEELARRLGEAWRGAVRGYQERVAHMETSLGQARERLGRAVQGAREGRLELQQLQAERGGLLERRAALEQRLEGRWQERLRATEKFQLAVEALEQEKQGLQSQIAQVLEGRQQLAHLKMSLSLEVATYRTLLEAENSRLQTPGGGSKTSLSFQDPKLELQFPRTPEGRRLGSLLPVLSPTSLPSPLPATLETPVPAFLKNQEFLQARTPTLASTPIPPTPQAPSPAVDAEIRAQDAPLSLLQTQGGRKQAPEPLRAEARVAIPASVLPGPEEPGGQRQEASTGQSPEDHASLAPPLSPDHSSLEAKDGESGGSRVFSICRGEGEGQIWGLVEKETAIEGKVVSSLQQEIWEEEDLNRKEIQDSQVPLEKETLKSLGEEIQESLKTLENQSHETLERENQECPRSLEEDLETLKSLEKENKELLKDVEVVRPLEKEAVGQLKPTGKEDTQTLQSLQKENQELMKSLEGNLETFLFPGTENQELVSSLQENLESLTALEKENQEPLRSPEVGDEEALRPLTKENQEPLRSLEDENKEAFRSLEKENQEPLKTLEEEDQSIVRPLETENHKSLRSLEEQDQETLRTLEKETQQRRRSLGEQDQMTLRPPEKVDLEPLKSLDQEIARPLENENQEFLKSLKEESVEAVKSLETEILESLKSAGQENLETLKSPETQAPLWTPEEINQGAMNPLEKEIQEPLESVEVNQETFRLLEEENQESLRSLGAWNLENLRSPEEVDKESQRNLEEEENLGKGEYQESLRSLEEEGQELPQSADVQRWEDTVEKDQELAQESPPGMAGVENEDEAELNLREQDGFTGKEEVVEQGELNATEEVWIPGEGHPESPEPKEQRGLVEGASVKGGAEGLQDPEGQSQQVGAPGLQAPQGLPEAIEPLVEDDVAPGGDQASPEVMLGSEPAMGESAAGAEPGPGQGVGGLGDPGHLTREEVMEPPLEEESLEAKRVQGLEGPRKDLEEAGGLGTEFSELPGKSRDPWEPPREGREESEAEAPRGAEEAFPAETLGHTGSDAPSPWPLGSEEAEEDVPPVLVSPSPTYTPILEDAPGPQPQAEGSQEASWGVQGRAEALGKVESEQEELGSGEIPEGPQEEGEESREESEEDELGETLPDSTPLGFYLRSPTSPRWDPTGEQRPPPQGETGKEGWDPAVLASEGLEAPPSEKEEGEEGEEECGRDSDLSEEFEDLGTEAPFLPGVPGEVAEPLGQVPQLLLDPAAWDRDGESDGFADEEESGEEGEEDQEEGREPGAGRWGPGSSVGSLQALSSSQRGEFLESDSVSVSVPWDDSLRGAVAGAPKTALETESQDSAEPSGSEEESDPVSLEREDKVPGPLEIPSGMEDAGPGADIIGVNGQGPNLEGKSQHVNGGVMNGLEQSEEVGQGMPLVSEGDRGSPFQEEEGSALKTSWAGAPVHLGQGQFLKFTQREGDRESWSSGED
UniProt Q9BPW8: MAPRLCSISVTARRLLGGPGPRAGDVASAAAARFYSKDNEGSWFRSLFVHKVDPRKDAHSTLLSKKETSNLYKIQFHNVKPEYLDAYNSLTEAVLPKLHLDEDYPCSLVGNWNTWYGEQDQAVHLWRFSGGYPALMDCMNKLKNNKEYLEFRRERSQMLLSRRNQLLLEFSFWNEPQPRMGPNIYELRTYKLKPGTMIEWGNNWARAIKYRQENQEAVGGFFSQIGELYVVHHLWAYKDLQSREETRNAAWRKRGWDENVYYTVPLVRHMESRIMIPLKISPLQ
UniProt O15226: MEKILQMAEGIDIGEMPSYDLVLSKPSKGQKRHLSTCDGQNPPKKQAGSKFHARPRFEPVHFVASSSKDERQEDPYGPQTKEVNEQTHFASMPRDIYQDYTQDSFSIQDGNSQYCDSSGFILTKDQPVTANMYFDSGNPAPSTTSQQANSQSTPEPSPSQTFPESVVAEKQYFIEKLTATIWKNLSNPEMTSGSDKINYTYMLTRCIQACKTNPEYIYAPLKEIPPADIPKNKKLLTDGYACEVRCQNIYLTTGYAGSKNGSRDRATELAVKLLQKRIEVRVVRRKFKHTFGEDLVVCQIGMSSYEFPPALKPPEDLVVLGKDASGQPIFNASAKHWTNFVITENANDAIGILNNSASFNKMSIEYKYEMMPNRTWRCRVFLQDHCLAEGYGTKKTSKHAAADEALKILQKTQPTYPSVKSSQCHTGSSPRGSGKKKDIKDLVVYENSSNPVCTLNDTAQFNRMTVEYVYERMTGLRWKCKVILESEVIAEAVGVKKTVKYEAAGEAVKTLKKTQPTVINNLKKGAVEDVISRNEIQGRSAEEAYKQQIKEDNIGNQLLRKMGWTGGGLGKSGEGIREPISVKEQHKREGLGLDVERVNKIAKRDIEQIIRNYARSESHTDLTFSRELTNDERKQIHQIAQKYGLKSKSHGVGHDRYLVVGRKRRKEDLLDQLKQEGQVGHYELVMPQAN
UniProt O75380, whole entry, looked up: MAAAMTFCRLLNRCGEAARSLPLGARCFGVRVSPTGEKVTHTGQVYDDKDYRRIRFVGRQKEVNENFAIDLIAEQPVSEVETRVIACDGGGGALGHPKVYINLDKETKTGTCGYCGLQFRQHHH
UniProt P56181: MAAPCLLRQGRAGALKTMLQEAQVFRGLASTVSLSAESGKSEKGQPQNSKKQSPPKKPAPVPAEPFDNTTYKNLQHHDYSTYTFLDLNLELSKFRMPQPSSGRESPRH
UniProt O94916: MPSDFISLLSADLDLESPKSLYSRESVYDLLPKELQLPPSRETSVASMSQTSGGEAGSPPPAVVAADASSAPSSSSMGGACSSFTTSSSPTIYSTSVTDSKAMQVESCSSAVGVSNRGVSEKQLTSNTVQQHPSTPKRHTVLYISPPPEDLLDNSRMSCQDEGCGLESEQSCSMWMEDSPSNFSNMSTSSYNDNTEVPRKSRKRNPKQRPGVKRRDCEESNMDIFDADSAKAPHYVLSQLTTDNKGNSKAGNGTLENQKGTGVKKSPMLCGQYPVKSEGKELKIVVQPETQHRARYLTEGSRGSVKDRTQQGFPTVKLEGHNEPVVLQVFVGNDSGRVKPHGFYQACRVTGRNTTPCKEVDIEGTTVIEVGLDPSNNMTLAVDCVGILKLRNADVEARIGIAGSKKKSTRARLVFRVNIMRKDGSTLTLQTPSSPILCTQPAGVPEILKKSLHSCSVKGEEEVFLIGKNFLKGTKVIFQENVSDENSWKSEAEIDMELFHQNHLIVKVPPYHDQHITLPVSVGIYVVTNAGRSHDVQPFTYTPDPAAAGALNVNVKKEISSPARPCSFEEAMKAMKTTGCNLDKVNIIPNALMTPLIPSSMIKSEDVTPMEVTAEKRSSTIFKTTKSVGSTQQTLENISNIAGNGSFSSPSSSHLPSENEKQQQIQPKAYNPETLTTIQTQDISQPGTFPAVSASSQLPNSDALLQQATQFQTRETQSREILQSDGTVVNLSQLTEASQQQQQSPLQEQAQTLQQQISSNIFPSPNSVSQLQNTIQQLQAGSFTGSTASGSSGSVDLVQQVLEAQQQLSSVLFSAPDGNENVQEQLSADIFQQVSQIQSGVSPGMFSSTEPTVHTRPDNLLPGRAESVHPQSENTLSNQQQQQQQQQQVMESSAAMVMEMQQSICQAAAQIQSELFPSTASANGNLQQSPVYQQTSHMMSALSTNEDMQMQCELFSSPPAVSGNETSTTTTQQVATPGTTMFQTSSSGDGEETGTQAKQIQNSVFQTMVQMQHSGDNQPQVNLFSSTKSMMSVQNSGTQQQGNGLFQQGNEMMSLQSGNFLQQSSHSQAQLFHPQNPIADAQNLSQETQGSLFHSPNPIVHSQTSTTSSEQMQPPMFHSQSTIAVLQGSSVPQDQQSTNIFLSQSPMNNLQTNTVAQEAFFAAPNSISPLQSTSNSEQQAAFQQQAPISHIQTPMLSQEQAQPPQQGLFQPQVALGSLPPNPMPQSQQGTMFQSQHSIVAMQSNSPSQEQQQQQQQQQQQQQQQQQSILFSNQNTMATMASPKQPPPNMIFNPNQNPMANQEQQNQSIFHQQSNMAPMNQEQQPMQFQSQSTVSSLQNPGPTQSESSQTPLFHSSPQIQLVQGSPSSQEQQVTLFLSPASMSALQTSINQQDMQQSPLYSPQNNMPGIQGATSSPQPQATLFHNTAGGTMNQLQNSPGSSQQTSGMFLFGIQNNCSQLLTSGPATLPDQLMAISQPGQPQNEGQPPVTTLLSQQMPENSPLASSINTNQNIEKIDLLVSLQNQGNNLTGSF
UniProt Q9NXR1: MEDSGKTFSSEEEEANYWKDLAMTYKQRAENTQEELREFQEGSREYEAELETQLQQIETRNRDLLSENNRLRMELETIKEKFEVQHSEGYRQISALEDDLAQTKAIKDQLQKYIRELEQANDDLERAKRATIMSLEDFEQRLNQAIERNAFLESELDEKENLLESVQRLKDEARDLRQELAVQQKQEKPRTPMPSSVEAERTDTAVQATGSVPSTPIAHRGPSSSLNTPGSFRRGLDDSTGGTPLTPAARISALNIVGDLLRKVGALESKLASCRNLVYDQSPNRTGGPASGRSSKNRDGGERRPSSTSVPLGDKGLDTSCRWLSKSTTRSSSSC
UniProt Q14494: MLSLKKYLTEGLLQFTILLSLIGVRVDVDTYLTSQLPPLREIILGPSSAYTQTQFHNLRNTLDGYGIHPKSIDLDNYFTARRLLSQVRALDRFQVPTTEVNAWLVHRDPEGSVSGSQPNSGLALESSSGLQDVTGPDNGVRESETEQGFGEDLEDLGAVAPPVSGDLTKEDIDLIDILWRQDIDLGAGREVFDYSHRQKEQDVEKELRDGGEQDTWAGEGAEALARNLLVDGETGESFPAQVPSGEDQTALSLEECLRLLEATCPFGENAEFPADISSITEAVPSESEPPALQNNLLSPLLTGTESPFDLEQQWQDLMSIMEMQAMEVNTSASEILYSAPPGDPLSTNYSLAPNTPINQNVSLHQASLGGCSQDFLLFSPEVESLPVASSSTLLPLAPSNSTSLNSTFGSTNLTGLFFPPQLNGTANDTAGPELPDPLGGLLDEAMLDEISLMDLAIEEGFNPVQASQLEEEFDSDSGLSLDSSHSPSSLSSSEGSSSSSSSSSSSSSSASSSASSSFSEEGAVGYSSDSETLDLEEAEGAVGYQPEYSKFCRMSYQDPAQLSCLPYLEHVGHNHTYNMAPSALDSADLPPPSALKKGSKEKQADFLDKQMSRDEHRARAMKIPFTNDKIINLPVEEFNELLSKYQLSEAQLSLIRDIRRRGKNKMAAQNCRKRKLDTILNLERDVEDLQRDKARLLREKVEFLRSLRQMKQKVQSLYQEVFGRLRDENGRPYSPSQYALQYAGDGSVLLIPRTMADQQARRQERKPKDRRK
UniProt Q9UI09, whole entry, looked up: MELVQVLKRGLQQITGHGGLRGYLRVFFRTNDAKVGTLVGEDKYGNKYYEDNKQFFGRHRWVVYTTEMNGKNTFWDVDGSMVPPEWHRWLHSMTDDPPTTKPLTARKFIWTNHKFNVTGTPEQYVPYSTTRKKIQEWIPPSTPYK

What all share (assay): log2 fold change, soluble protein after heating vs DMSO (PISA); higher = thermal stabilisation; K562 lysate, 10 uM; active = over 0.2 and 3.5 SD of the protein, either way, in both replicates (recomputed)
Compound in test [1]: NCC(=O)Nc1ccc(-n2nc(C(F)(F)F)cc2-c2ccc3c(ccc4ccccc43)c2)cc1
Put shortly:
(§1)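 K562 pellets were dounce-homogenised in PBS pH 7.4 containing 1 mM MgCl2, and the crude extract, at 1 mg/mL protein, was exposed to 10 μM compound for 30 min. Aliquots were heated for 3 min across 48°C-58°C, pooled, brought to 0.5% NP-40 at 4°C and spun at 21,000xg for 90 min, with the supernatant taken as soluble protein. TMTpro 16plex LC-MS/MS with equalised channel sums quantified that protein. Values are log-two fold changes in thermal stability relative to solvent controls, taken from duplicates.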

Compound in test [2]: O=C(CCCCCCC(=O)Nc1ccccc1)NO [vorinostat]
Put shortly: as §1

Compound in test [3]: O=C(O)c1ccc2c(c1)nc(Nc1cccc(Cl)c1)c1ccncc12 [silmitasertib]
A digest of the protocol:
as §1

Compound in test [4]: O=C1NC(=O)C(c2cnc3ccccn23)=C1c1cn2c3c(cc(F)cc13)CN(C(=O)N1CCCCC1)CC2
Put shortly: as §1

Compound in test [5]: c1cn2cc(-c3ccc4cn[nH]c4c3)nc(Nc3ccc(N4CCOCC4)cc3)c2n1 [entospletinib]
A digest of the protocol: as §1

Some of the results follow.

Consider NFU1 (UniProt Q9UMS0), for which the log2 fold change in test [1] is inactive: 0.02; in test [2], inactive: 0.052; in test [3] it was inactive: 0.002; in test [4], inactive: -0.003; in test [5], inactive: -0.064.

With NIT1 (UniProt Q86X76), the log2 fold change is inactive: -0.005 in test [1]; inactive: 0.07 in test [2]; inactive: -0.01 in test [3]; inactive: 0.036 in test [4]; inactive: 0.025 in test [5].

NEK7 (UniProt Q8TDX7): the log2 fold change in test [1] is inactive: -0.037; in test [2], active: -0.338; in test [3], inactive: 0.105; in test [4] it was inactive: 0.003; in test [5], inactive: 0.012.

In the case of NDUFA5 (UniProt Q16718), the log2 fold change in test [1] is inactive: 0; in test [2], inactive: 0.079; in test [3] it was inactive: -0.034; in test [4], inactive: 0.013; in test [5], inactive: -0.067.

Regarding NIF3L1 (UniProt Q9GZT8), the log2 fold change in test [1] was inactive: 0.033; in test [2], inactive: 0.116; in test [3], inactive: -0.045; in test [4], inactive: 0.003; in test [5], inactive: 0.006.

For NDUFB3 (UniProt O43676), the log2 fold change in test [1] was inactive: 0.008; in test [2], inactive: 0.131; in test [3] it was inactive: -0.002; in test [4], inactive: -0.037; in test [5], inactive: -0.021.

Take NFYC (UniProt Q13952): the log2 fold change in test [1] is inactive: 0.045; in test [2] it was inactive: 0.111; in test [3], inactive: -0.065; in test [4] it was inactive: -0.026; in test [5], inactive: -0.066.

As for NES (UniProt P48681), the log2 fold change in test [1] is inactive: 0.052; in test [2], inactive: -0.045; in test [3], inactive: -0.005; in test [4], inactive: -0.02; in test [5] it was inactive: -0.023.

As for NIPSNAP1 (UniProt Q9BPW8), the log2 fold change in test [1] was inactive: 0.065; in test [2], inactive: 0.122; in test [3] it was inactive: -0.004; in test [4], inactive: 0.024; in test [5], inactive: 0.002.

Regarding NKRF isoform 2 (UniProt O15226), the log2 fold change was inactive: 0.064 in test [1]; inactive: 0.033 in test [2]; inactive: 0.061 in test [3]; inactive: 0.053 in test [4]; inactive: -0.01 in test [5].

Take NDUFS6 (UniProt O75380): the log2 fold change in test [1] was inactive: -0.001; in test [2], inactive: 0.089; in test [3], inactive: 0.009; in test [4], inactive: -0.047; in test [5], inactive: -0.016.

On to NFKB1 isoform 2 (UniProt P19838), for which the log2 fold change in test [1] is inactive: 0.008; in test [2] it was inactive: -0.198; in test [3], inactive: 0.01; in test [4], inactive: -0.041; in test [5], inactive: -0.033.

NDUFV3 (UniProt P56181): the log2 fold change in test [1] was inactive: 0.061; in test [2] it was inactive: 0.097; in test [3] it was inactive: -0.08; in test [4], inactive: 0.055; in test [5], inactive: 0.062.

Regarding NFAT5 isoform 5 (UniProt O94916), the log2 fold change in test [1] is inactive: 0.033; in test [2], inactive: -0.026; in test [3] it was inactive: 0.037; in test [4], inactive: 0.016; in test [5], inactive: -0.061.

For the target NHEJ1 (UniProt Q9H9Q4), the log2 fold change is inactive: 0.029 in test [1]; inactive: 0.052 in test [2]; inactive: -0.06 in test [3]; inactive: -0.005 in test [4]; inactive: 0.009 in test [5].

For NIPBL (UniProt Q6KC79), the log2 fold change in test [1] is inactive: -0.024; in test [2], active: -0.357; in test [3] it was inactive: 0.101; in test [4] it was inactive: -0.005; in test [5] it was inactive: 0.071.

Consider NDE1 isoform 1 (UniProt Q9NXR1), for which the log2 fold change in test [1] is inactive: -0.017; in test [2], inactive: 0.025; in test [3] it was inactive: -0.007; in test [4], inactive: -0.041; in test [5], inactive: 0.023.

In the case of NEDD4 isoform 4 (UniProt P46934), the log2 fold change in test [1] was inactive: 0.042; in test [2], inactive: -0.086; in test [3] it was inactive: 0.021; in test [4], inactive: -0.004; in test [5], inactive: 0.019.

Take NFE2 (UniProt Q16621): the log2 fold change in test [1] is inactive: -0.017; in test [2] it was inactive: 0.043; in test [3], inactive: -0.017; in test [4], inactive: 0.038; in test [5], inactive: -0.007.

As for NISCH (UniProt Q9Y2I1), the log2 fold change was inactive: -0.006 in test [1]; inactive: -0.127 in test [2]; inactive: -0.024 in test [3]; inactive: -0.05 in test [4]; inactive: -0.035 in test [5].

Take NDUFS5 (UniProt O43920): the log2 fold change in test [1] is inactive: 0.063; in test [2], inactive: 0.071; in test [3], inactive: -0.01; in test [4], inactive: 0.027; in test [5] it was inactive: -0.027.

Turning to NFE2L1 (UniProt Q14494), the log2 fold change is inactive: 0.257 in test [1]; inactive: 0.104 in test [2]; inactive: -0.021 in test [3]; inactive: 0.086 in test [4]; inactive: -0.042 in test [5].

On to NDUFB10 (UniProt O96000), for which the log2 fold change in test [1] was inactive: 0.016; in test [2] it was inactive: 0.127; in test [3], inactive: 0.003; in test [4] it was inactive: 0.036; in test [5] it was inactive: 0.014.

On to NDUFA12 (UniProt Q9UI09), for which the log2 fold change in test [1] is inactive: -0.108; in test [2] it was inactive: 0.081; in test [3], inactive: 0; in test [4], inactive: 0.064; in test [5], inactive: 0.016.
